# Data reported in the supplement of paper PMC10849652.
# By UniProt entry, the sequences of proteins in these tests, tags left out. Where a name states a change or a piece, a line headed by the entry shows the natural chain unless it says otherwise.
# UniProt Q6NZ67, whole entry, looked up: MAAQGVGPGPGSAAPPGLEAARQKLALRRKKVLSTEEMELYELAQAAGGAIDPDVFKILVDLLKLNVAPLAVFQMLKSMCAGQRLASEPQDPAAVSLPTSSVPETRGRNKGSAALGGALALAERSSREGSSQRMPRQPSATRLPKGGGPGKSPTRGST
# UniProt O14777: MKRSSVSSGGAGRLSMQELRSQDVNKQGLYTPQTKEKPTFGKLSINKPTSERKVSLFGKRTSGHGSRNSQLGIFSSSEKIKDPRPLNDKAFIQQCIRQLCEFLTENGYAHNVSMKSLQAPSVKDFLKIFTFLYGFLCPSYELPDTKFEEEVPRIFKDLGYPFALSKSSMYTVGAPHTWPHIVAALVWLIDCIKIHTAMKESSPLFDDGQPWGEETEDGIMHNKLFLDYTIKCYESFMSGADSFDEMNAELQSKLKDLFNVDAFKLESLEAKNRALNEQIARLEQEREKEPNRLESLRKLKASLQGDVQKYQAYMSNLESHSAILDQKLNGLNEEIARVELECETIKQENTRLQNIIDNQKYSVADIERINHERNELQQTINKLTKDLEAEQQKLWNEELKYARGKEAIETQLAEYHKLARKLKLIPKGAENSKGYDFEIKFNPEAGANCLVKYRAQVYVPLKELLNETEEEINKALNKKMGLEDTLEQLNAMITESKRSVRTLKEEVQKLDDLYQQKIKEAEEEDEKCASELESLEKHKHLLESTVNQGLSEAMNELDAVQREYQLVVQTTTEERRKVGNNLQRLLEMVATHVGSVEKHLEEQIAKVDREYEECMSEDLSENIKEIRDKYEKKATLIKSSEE
# UniProt Q8WUY8: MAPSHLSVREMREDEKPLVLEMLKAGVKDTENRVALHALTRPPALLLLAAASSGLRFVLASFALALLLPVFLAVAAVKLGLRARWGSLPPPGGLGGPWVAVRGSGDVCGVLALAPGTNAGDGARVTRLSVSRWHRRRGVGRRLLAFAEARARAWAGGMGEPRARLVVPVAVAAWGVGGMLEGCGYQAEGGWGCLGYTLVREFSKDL
# UniProt O43181, whole entry, looked up: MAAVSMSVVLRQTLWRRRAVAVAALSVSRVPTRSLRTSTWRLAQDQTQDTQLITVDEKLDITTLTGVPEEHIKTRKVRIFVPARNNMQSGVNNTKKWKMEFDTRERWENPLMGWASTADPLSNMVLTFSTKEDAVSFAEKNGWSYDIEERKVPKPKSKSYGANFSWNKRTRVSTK
# UniProt Q330K2: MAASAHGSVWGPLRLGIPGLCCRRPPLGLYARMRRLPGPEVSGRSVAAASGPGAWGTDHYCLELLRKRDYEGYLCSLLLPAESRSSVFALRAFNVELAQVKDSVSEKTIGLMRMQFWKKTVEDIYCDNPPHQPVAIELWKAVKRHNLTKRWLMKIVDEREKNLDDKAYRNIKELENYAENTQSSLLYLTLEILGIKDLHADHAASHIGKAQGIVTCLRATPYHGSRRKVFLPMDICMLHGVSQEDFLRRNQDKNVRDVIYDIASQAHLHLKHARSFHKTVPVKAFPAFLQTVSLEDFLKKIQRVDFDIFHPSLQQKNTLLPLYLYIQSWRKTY
# UniProt Q9BT67: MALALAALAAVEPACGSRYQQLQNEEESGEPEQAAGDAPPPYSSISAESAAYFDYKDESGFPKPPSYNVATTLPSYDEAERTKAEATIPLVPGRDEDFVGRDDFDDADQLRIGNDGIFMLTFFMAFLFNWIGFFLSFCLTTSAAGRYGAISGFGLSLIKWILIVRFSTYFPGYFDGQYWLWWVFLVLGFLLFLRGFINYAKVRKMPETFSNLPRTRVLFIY
# UniProt Q9BSU3: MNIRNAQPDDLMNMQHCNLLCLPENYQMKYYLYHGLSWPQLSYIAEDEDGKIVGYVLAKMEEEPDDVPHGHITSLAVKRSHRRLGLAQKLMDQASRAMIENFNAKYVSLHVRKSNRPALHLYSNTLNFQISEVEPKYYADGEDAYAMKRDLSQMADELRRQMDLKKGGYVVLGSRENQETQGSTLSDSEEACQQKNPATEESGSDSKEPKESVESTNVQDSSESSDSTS
# UniProt Q69YL0: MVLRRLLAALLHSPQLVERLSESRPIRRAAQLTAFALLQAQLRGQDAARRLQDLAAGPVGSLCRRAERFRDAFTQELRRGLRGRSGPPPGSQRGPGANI
# UniProt Q99747: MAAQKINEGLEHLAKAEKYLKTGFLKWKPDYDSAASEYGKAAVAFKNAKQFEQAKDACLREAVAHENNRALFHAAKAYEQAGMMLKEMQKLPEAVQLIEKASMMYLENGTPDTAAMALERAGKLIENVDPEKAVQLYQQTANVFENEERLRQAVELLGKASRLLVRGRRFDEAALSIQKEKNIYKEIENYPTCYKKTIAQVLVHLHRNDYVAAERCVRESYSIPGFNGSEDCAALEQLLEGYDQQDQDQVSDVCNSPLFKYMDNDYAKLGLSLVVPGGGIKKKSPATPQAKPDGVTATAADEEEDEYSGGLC
# Some of the results follow.
# What was measured:
# Assay in all cases: log2 fold change, soluble protein after heating vs DMSO (PISA); higher = thermal stabilisation; K562 cells, 10 uM, 30 min; active = over 0.2 and 3.5 SD of the protein, either way, in both replicates (recomputed)
# [1] = compound: CC1=C(C=C(C=C1)NC(=O)C2=CC(=CC=C2)C(C)(C)C#N)NC3=CC4=C(C=C3)N=CN(C4=O)C
# Procedure, shortened: (§1)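 Thermal stability values are relative to control samples and come from duplicates. They are expressed as log2 fold changes. For measurement, K562 cells (2×10^6 cells/mL) received 10 μM compound for 30 min, and aliquots were heated for 3 min over 48°C-58°C, pooled, and extracted at 4°C in PBS with 0.5% NP-40. Soluble protein, the supernatant after 21,000xg for 90 min, was quantified by TMTpro 16plex LC-MS/MS with equalised channel sums.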
# [2] = compound: CC1=C(C=C(C=C1)NC(=O)C2=CC(=CC=C2)N(C)C)NC(=O)C3=CC=C(C=C3)O
# Procedure, shortened: as §1
# [3] = compound: CC1=CC=C(C=C1)SC2=C3C=C(SC3=CN=C2)C(=O)N
# Procedure, shortened: as §1
# [4] = compound: CC1=NC(=CC=C1)C2=C(N=C(N2)C(C)(C)C)C3=CC4=NC=CN=C4C=C3
# Procedure, shortened: as §1
# [5] = compound: CCCCN(Cc1ccc(C(=O)NO)cc1)C(=O)Nc1ccccc1 [Nexturastat A]
# Procedure, shortened: as §1
# [6] = compound: CCCS(=O)(=O)Nc1ccc(F)c(C(=O)c2c[nH]c3ncc(-c4ccc(Cl)cc4)cc23)c1F [vemurafenib]
# Procedure, shortened: as §1
# [7] = compound: CCCS(=O)(=O)Nc1ccc(F)c(C(=O)c2c[nH]c3ncc(Cl)cc23)c1F
# Procedure, shortened: as §1
# [8] = compound: CCCc1cc(C)[nH]c(=O)c1CNC(=O)c1cc(-c2ccnc(N3CCN(C)CC3)c2)cc2c1cnn2C(C)C
# Procedure, shortened: as §1
# [9] = compound: CCN(CC)Cc1ccc2cc(COC(=O)Nc3ccc(C(=O)NO)cc3)ccc2c1 [givinostat]
# Procedure, shortened: as §1
# [10] = compound: CCN(CCCOc1ccc2c(Nc3cc(CC(=O)Nc4cccc(F)c4)[nH]n3)ncnc2c1)CCOP(=O)(O)O [barasertib]
# Procedure, shortened: as §1
# [11] = compound: CC[C@@H]1C(=O)N(C)c2cnc(Nc3ccc(C(=O)N[C@H]4CC[C@H](N5CCN(CC6CC6)CC5)CC4)cc3OC)nc2N1C(C)C [volasertib]
# Procedure, shortened: as §1
# [12] = compound: CC[C@H](C)N1C=C(C2=C(C=C(C=C21)C3=CN=C(C=C3)N4CCNCC4)C(=O)NCC5=C(C=C(NC5=O)C)C)C
# Procedure, shortened: as §1
# [13] = compound: CC[C@H](C)[C@@H](C(=O)N[C@@H]([C@@H](C)O)C(=O)N[C@@H](CC(C)C)C(=O)[C@]1(CO1)C)NC(=O)[C@H]([C@@H](C)CC)N(C)C(=O)C [epoxomicin]
# Procedure, shortened: as §1
# [14] = compound: CCn1c(C(=O)N(C2CC2)C2CC2)cc2c3c(ncn3C)c(Nc3cc(C)n(C)n3)nc21
# Procedure, shortened: as §1
# [15] = compound: CCn1cc(-c2ccnc3[nH]c(-c4cccc(CN(C)C)c4)cc23)c(-c2ccc(NC(=O)N(C)C)cc2)n1
# Procedure, shortened: as §1
# [16] = compound: CN(C)CC(=O)Nc1ccc2[nH]c(=O)c3ccccc3c2c1
# Procedure, shortened: as §1
# [17] = compound: CN(CCOC1=CC=C(C=C1)C[C@H]2C(=O)NC(=O)S2)C3=CC=CC=N3 (racemic) [rosiglitazone]
# Procedure, shortened: as §1
# [18] = compound: CN1C2=C(C3=C1C(=O)N(N=C3)CC4=CC(=CC=C4)N)SC(=C2)S(=O)C
# Procedure, shortened: as §1
# [19] = compound: CN1CCC(CNc2ccc3ncc(-c4cccc(OC(F)(F)F)c4)n3n2)CC1
# Procedure, shortened: as §1
# [20] = compound: CC[C@@H]1C(=O)N(C)c2cnc(Nc3ccc(C(=O)NC4CCN(C)CC4)cc3OC)nc2N1C1CCCC1
# Procedure, shortened: as §1
Target,log2 fold change [1],log2 fold change [2],log2 fold change [3],log2 fold change [4],log2 fold change [5],log2 fold change [6],log2 fold change [7],log2 fold change [8],log2 fold change [9],log2 fold change [10],log2 fold change [11],log2 fold change [12],log2 fold change [13],log2 fold change [14],log2 fold change [15],log2 fold change [16],log2 fold change [17],log2 fold change [18],log2 fold change [19],log2 fold change [20]
MZT2B (UniProt Q6NZ67),inactive: 0.059,inactive: -0.546,inactive: -0.111,inactive: 0.022,inactive: -0.074,inactive: 0.072,inactive: -0.096,inactive: 0,inactive: 0.025,inactive: 0.006,inactive: 0.049,inactive: 0.018,inactive: 0.118,inactive: -0.102,inactive: 0.006,inactive: -0.048,inactive: 0.042,inactive: 0,inactive: 0.044,–
NDC80 (UniProt O14777),inactive: -0.05,inactive: -0.016,inactive: -0.018,inactive: -0.091,inactive: 0.133,inactive: -0.029,inactive: 0.177,inactive: -0.109,inactive: 0.176,–,inactive: -0.128,inactive: 0.088,inactive: -0.143,inactive: -0.095,inactive: 0.15,inactive: 0.052,–,inactive: 0.298,inactive: -0.045,inactive: 0.022
NAT14 (UniProt Q8WUY8),inactive: 0.012,inactive: -0.054,inactive: 0.011,inactive: 0.031,inactive: 0.227,inactive: 0.054,inactive: -0.051,inactive: -0.103,inactive: -0.043,inactive: 0.027,inactive: -0.261,inactive: 0.063,inactive: -0.024,–,–,inactive: 0.077,–,inactive: -0.107,–,inactive: -0.192
NDUFS4 (UniProt O43181),inactive: 0.03,inactive: 0.024,inactive: -0.069,inactive: -0.033,inactive: 0.032,inactive: -0.061,inactive: -0.06,inactive: -0.033,inactive: -0.083,inactive: -0.062,inactive: 0.074,inactive: -0.037,inactive: -0.025,–,inactive: 0.071,inactive: -0.079,–,inactive: 0.033,inactive: -0.013,inactive: 0.052
NDUFAF6 (UniProt Q330K2),inactive: 0.055,inactive: 0.068,inactive: 0.169,inactive: 0.024,inactive: -0.052,inactive: -0.055,inactive: 0.035,inactive: -0.088,inactive: -0.063,inactive: -0.01,inactive: -0.027,inactive: -0.028,inactive: 0.055,–,inactive: -0.059,inactive: -0.078,–,inactive: -0.014,active: -0.721,inactive: -0.27
NDUFAB1 (UniProt O14561),inactive: 0.03,inactive: -0.08,–,inactive: 0.049,inactive: -0.094,inactive: 0.233,–,inactive: 0.005,inactive: -0.006,inactive: -0.005,–,inactive: 0,inactive: 0.138,inactive: -0.057,inactive: 0.183,inactive: 0.205,inactive: -0.03,–,inactive: 0.201,inactive: -0.085
"NA, A0A096LPI6",inactive: -0.018,inactive: 0.032,inactive: 0.051,inactive: 0.039,inactive: -0.093,inactive: 0.008,inactive: 0.052,inactive: -0.033,inactive: -0.055,inactive: -0.003,inactive: 0.044,inactive: -0.056,inactive: -0.017,–,inactive: 0.029,inactive: -0.002,–,inactive: -0.03,inactive: 0.016,inactive: 0.023
NDFIP1 (UniProt Q9BT67),inactive: -0.366,inactive: -0.125,–,inactive: -0.1,inactive: 0.048,inactive: 0.268,–,inactive: -0.15,inactive: -0.046,inactive: -0.011,–,inactive: -0.2,inactive: 0.102,–,inactive: 0.224,inactive: 0.152,–,inactive: 0.175,inactive: -0.062,inactive: 0.211
NAA11 (UniProt Q9BSU3),inactive: -0.375,inactive: 0.006,inactive: 0.06,inactive: 0.021,inactive: -0.016,inactive: 0.145,inactive: -0.067,inactive: 0.047,inactive: 0,inactive: -0.027,inactive: -0.041,inactive: 0.044,inactive: 0.063,–,–,inactive: -0.114,–,inactive: 0.001,–,inactive: -0.013
NCBP2AS2 (UniProt Q69YL0),inactive: 0.069,inactive: 0.017,inactive: 0.162,–,–,inactive: -0.039,inactive: 0.037,inactive: -0.096,inactive: -0.146,inactive: 0.072,inactive: -0.193,inactive: -0.1,–,–,inactive: 0.026,inactive: -0.072,–,inactive: 0.049,active: -0.906,inactive: -0.255
NAPG (UniProt Q99747),inactive: 0.044,inactive: -0.115,inactive: 0.077,inactive: 0.006,inactive: 0.004,inactive: 0.067,inactive: 0.155,inactive: 0.045,inactive: 0.123,inactive: 0.107,active: -0.462,inactive: 0.072,inactive: 0.069,–,inactive: -0.076,inactive: 0.048,–,inactive: 0,inactive: -0.028,inactive: -0.118
